The target in assay [1] is CDT2, endogenous (human (endogenous in HeLa)) (UniProt Q9NZJ0). Kind of assay: co-IP; HeLa cells synchronized by double thymidine block, harvested 2.5 hrs after release (mid S-phase), where indicated transfected with myc-CUL4B; lysis in 420 mM NaCl, 50 mM Tris-HCl pH 7.5, 1% NP-40, diluted to 150 mM NaCl; 0.5-0.8 mg extract per IP; control serum; interactions resistant to ethidium bromide; immunoblot.

Sequences of proteins named here, by UniProt entry; tags and fusion partners are left off.
UniProt Q9NZJ0: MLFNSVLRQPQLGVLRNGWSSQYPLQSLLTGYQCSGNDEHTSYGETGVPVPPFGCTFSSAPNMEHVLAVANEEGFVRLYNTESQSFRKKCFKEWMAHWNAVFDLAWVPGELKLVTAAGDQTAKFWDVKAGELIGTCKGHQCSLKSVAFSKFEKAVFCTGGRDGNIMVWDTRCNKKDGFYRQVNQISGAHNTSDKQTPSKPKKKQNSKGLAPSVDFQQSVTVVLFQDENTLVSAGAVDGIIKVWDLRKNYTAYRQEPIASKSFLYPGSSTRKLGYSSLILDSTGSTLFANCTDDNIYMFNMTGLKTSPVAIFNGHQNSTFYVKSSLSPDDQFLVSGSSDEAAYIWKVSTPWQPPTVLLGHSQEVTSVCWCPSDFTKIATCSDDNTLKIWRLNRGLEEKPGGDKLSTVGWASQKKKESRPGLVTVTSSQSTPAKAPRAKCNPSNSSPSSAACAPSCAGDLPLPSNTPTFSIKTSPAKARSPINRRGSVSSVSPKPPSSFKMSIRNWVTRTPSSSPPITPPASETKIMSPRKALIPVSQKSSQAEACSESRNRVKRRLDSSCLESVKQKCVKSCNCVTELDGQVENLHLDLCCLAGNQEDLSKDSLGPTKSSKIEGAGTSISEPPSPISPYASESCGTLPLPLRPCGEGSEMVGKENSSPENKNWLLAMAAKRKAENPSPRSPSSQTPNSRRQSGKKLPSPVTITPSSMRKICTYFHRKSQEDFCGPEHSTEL
UniProt Q13620: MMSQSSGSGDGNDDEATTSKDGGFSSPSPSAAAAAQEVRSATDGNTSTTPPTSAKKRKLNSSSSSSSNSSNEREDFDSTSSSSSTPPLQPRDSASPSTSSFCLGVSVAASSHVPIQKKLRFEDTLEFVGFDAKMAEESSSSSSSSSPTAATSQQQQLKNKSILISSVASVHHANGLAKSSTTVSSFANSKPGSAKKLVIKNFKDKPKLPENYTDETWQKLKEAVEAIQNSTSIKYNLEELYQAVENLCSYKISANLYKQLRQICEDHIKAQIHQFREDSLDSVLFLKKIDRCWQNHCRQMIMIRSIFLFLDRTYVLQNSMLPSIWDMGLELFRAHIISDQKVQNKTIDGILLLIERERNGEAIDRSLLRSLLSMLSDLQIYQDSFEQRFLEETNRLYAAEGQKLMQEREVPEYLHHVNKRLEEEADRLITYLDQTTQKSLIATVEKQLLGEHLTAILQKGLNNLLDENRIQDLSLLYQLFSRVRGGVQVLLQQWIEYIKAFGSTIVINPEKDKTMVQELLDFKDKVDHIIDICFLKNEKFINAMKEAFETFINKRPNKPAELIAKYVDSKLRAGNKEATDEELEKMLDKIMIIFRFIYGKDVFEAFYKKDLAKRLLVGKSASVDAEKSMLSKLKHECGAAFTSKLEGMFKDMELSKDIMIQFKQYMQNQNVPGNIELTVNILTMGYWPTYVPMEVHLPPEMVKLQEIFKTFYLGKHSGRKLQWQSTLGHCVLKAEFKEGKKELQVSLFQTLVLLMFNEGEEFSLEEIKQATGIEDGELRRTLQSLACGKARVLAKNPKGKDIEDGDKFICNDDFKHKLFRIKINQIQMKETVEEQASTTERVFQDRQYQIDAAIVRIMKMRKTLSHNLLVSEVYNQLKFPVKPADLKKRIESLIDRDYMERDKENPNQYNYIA
UniProt Q13619: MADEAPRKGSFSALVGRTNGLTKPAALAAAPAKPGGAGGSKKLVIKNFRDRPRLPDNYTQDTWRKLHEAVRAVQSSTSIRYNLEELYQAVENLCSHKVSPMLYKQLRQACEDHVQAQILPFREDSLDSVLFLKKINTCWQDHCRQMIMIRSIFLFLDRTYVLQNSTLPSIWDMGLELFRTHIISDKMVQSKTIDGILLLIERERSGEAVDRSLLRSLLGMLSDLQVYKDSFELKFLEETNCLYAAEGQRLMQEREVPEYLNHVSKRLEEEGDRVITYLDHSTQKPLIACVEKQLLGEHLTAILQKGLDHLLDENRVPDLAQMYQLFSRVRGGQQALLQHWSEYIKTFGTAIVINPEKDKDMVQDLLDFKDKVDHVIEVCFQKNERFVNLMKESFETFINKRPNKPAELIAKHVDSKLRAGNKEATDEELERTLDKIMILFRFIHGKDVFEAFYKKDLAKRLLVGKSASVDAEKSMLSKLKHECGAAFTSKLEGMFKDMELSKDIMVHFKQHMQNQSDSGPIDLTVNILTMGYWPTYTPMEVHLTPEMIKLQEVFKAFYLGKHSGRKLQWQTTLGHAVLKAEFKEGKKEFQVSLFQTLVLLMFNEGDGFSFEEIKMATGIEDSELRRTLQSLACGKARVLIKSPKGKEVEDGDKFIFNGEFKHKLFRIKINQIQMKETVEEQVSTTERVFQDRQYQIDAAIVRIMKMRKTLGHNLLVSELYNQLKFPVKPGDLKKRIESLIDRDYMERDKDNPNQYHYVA
UniProt Q149N8: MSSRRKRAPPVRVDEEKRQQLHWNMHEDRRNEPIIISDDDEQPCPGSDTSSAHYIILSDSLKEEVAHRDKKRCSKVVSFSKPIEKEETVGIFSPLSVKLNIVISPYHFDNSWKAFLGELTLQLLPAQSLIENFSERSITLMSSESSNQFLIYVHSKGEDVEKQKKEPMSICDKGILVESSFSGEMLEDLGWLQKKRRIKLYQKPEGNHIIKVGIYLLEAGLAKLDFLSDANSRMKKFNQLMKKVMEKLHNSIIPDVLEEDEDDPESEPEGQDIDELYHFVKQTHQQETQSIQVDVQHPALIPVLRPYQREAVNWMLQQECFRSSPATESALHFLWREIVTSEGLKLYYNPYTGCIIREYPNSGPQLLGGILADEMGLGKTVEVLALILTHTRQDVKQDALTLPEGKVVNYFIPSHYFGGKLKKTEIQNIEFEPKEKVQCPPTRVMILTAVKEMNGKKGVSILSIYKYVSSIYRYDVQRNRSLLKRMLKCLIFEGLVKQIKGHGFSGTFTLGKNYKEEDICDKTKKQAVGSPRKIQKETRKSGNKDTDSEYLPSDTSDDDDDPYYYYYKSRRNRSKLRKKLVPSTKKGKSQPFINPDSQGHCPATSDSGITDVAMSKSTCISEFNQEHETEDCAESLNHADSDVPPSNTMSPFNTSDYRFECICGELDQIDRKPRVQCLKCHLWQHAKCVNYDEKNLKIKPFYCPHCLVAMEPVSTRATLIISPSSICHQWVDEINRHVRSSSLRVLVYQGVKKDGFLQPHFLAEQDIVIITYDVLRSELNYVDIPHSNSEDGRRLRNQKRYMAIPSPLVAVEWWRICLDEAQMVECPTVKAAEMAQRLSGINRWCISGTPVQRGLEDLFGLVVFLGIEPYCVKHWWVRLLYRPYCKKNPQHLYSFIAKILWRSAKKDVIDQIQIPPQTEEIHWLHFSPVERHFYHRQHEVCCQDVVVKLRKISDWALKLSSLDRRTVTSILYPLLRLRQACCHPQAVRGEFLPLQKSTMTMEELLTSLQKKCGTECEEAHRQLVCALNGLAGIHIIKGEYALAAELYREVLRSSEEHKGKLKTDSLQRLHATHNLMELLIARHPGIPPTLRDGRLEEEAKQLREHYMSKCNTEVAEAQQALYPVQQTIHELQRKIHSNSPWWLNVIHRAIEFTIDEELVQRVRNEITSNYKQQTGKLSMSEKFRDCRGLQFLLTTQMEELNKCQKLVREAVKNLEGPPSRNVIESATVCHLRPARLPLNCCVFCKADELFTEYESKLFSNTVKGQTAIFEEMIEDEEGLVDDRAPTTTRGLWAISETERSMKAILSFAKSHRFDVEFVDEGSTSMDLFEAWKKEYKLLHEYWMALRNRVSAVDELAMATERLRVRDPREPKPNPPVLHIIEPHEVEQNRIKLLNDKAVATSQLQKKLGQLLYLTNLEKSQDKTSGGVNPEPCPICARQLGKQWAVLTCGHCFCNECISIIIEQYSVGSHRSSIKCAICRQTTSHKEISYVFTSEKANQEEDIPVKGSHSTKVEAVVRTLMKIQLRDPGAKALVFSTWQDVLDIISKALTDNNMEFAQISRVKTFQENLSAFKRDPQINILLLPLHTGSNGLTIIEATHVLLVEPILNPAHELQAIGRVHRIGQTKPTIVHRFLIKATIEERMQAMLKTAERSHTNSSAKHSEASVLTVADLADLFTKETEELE
UniProt Q92905: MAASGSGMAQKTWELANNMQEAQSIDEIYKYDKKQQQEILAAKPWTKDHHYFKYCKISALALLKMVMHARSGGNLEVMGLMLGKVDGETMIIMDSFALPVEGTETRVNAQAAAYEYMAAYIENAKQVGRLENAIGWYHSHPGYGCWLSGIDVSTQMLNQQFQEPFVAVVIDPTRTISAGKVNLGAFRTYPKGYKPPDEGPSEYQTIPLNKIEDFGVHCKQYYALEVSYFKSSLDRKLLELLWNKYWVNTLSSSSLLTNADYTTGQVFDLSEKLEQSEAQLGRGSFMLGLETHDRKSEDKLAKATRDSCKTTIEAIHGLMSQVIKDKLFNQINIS
UniProt Q9NS91: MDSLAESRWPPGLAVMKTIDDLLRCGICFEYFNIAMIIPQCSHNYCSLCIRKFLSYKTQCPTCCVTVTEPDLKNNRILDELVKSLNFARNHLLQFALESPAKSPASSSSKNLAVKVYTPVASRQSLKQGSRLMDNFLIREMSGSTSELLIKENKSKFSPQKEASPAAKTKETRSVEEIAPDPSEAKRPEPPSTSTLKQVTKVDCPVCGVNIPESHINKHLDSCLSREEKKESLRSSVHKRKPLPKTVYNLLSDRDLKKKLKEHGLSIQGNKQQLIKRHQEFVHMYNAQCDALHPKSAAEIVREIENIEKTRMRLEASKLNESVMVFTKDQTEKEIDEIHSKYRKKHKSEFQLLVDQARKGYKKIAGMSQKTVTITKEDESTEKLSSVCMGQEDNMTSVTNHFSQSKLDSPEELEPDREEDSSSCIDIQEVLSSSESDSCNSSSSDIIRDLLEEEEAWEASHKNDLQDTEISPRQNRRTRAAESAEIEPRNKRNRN

The target in the next assay is myc-tagged CUL4B (UniProt Q13620). The assay is described as above.
Assay [2] concerns the target T1, HLTF, endogenous (human (endogenous in HeLa)) (UniProt Q14527).
T1 sequence: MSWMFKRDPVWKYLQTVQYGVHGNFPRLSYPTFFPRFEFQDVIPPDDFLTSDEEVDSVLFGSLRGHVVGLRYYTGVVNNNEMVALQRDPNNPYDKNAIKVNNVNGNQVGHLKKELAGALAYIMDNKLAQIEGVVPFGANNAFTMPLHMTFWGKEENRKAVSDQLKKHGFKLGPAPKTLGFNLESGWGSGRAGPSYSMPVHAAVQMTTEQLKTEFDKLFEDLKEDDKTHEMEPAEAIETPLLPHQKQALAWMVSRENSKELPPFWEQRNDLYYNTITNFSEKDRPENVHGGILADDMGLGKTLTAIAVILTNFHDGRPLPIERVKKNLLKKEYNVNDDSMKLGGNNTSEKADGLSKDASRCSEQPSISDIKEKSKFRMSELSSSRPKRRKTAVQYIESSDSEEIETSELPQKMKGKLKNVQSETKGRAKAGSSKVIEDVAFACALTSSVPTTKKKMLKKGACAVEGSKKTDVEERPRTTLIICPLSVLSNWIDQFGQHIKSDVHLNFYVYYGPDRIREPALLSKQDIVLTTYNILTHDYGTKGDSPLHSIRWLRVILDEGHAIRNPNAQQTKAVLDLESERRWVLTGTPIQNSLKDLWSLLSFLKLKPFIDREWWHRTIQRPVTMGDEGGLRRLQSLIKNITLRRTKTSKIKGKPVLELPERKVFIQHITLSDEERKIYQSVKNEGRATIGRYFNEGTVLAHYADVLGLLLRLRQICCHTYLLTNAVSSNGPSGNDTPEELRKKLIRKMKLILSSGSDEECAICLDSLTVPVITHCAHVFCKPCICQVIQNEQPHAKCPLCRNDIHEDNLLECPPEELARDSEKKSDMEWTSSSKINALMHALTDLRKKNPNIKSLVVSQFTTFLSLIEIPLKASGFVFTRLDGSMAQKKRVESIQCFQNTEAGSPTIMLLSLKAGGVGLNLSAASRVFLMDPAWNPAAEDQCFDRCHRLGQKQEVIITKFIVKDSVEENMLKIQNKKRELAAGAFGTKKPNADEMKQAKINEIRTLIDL
Nature of the assay: co-IP; HeLa cells synchronized in mid S-phase, protein-protein cross-linked before harvest (protocol of ref. 39, for chromatin); total extract immunoprecipitated with serum as control or the indicated antibodies; immunoblot. (A western blot detects proteins with antibodies after separation by electrophoresis.)

Assay [3] has as its target CDT2, endogenous (human (endogenous in HeLa)) (UniProt Q9NZJ0). Described as above.
Assay [4] has as its target Cullin-4A (CUL4A), endogenous (human (endogenous in HeLa)) (UniProt Q13619). Nature of the assay: co-IP; HeLa cells synchronized by double thymidine block, harvested 2.5 hrs after release (mid S-phase), where indicated transfected with myc-CUL4B; lysis in 420 mM NaCl, 50 mM Tris-HCl pH 7.5, 1% NP-40, diluted to 150 mM NaCl; 0.5-0.8 mg extract per IP; control serum; interactions resistant to ethidium bromide; immunoblot.

No constants are given. Whether binding was seen depends on the method and setting. In cells and extracts the contact can be indirect. Some results given as binding are weak or reduced against the parent protein; the word gives no strength.

For the substance “Cullin-4A (CUL4A), endogenous (from UniProt Q13619 1-759)”, the binding result (in assay [1]; with myc-tagged CUL4B) was “binds” in each case.

For “CDT2, endogenous (from UniProt Q9NZJ0 1-730)”, the binding result in assay [2] is on record as “binds”.

In the case of “SHPRH, endogenous (from UniProt Q149N8 1-1683)”, in assay [3], the binding result is listed as “binds”.

Take “CSN5 (COP9 signalosome subunit 5), endogenous (from UniProt Q92905 1-334)”: the binding result in assay [1] was “binds”.

As to “Cullin-4B (CUL4B), endogenous (from UniProt Q13620 1-913)”, the binding entry (in assay [4]; in assay [1]; with myc-tagged CUL4B) was “binds” each time.

Consider “RAD18, endogenous (from UniProt Q9NS91 1-495)”, for which the binding result in assay [2] and in assay [3] was “binds” in each case.

Regarding “myc-tagged CUL4B (from UniProt Q13620 1-913)”, the binding result in assay [1] was “binds”.
